Test results as given in paper PMC11343839, “Structural mechanism of proton conduction in otopetrin proton channel” (Nature Communications, 2024).
Results are given in words; binding and its absence hold for the method and conditions named. Some entries that bind do so weakly or less than the wild type.

Target: mOTOP2 M374W (Mus musculus) (UniProt Q80SX5)
Test: cryo-EM structure; single-particle cryo-EM of protein purified in GDN detergent (20 mM Tris, 150 mM NaCl, 0.04% GDN), 3.0 mg/mL; samples at pH 5.0 and 8.0 (CeOTOP8), pH 5.0, 7.0, 8.0 and 9.0 (mOTOP2), pH 8.0 (mOTOP2 M374W); both purified

B1: mOTOP2 M374W (natural protein, Mus musculus)
chain: MSEELVPHPNESLPGPRASPREVWKKGGRLLSVLLAVNVLLLACTLISGGAFNKVAVYDTDVFALLTTMMLLAALWIVFYLLRTARCPDAVPYRDAHAGPIWLRGGLVLFGICTLVMDVFKTGYYSSFFECQSAIKILHPIIQAVFVIVQTYFLWISAKDCIHTHLDLTRCGLMFTLATNLAIWMAAVVDESVHQAHSYSGSHGNTSHTRLNPDSKRAGGAAEEDPCLCSTAICQIFQQGYFYLYPFNIEYSLFASTMLYVMWKNVGRLLASTHGHGHTPSRVSLFRETFFAGPVLGLLLFVVGLAVFILYEVQVSGERGHTRQALVIYYSFNIVCLGLMTLVSLSGSVIYRFDRRAMDHHKNPTRTLDVALLWGAALGQYAISYYSIVAVVVGSPRDLQGALNLSHALLMIAQHTFQNVFIIESLHRGPPGAEPREMPPKEPCQGITFANLDAIRTLPSCPPTPRLVIPNLESPQEAVAIISAPRCHWRRRCLKDISLFLLLCNVILWIMPAFGARPHFSNTVEVDFYGYSLWAAIVNICLPFGIFYRMHAVSSLLEVYVLS
notes: Otopetrin 2 (mOTOP2), Mus musculus, with the point mutation M374W on TM9; same construct as the wild-type channel; The general purification protocol removes His10-GFP with thrombin; also called mOTOP2 M374W loss-of-function mutant; source: HEK293F cells (pEZTBM vector, same construct as the wild type), purified
With B1 the binding was “binds”.
